Test results published in paper PMC8322336.
These are yes or no findings as the source states them, for the method shown. Binding seen in cells or lysates may run through a third protein. Some entries that bind do so weakly or less than the wild type. For part of these data: Where a sequence is shown, tags or fusion partners need not be part of it.

Sequences of proteins named here, by UniProt entry; tags and fusion partners are left off.
UniProt Q8TDY2: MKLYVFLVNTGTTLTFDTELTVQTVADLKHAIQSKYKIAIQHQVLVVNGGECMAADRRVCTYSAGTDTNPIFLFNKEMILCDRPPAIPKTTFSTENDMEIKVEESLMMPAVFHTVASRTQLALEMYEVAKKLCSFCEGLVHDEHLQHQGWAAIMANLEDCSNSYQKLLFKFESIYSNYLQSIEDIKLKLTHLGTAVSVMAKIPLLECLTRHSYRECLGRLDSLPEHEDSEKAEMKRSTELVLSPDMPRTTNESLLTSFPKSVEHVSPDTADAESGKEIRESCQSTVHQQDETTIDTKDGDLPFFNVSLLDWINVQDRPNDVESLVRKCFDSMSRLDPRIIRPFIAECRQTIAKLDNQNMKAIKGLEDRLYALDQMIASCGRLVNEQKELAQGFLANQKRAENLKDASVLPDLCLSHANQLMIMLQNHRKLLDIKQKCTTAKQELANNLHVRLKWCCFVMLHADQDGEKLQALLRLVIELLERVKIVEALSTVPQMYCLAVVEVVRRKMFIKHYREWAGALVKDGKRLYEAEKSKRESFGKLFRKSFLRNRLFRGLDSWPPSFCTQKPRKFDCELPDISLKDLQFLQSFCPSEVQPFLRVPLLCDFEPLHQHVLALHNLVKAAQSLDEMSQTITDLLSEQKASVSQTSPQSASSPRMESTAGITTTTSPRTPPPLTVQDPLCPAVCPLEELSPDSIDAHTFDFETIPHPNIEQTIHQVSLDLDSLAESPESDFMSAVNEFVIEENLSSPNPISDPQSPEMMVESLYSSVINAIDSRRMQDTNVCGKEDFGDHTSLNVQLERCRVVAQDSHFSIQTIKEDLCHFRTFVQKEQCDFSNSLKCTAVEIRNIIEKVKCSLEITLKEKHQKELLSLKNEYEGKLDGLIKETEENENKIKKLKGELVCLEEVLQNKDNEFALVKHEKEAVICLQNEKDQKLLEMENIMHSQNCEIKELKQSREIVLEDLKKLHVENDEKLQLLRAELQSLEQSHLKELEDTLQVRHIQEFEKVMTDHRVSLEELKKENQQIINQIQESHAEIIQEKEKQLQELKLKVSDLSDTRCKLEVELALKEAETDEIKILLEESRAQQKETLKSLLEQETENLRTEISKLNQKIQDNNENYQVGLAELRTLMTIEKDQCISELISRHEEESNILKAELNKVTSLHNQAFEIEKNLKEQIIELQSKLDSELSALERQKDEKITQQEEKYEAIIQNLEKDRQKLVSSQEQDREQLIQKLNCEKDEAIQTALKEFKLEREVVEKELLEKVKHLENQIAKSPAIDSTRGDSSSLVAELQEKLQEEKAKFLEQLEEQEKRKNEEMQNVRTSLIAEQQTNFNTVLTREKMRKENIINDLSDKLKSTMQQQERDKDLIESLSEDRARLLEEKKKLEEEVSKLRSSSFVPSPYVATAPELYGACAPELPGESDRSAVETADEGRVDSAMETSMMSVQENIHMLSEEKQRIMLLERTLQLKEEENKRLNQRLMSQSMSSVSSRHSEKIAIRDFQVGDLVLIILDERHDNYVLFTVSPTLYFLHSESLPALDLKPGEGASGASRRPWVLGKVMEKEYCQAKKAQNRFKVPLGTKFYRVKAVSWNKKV
UniProt Q9ESK9: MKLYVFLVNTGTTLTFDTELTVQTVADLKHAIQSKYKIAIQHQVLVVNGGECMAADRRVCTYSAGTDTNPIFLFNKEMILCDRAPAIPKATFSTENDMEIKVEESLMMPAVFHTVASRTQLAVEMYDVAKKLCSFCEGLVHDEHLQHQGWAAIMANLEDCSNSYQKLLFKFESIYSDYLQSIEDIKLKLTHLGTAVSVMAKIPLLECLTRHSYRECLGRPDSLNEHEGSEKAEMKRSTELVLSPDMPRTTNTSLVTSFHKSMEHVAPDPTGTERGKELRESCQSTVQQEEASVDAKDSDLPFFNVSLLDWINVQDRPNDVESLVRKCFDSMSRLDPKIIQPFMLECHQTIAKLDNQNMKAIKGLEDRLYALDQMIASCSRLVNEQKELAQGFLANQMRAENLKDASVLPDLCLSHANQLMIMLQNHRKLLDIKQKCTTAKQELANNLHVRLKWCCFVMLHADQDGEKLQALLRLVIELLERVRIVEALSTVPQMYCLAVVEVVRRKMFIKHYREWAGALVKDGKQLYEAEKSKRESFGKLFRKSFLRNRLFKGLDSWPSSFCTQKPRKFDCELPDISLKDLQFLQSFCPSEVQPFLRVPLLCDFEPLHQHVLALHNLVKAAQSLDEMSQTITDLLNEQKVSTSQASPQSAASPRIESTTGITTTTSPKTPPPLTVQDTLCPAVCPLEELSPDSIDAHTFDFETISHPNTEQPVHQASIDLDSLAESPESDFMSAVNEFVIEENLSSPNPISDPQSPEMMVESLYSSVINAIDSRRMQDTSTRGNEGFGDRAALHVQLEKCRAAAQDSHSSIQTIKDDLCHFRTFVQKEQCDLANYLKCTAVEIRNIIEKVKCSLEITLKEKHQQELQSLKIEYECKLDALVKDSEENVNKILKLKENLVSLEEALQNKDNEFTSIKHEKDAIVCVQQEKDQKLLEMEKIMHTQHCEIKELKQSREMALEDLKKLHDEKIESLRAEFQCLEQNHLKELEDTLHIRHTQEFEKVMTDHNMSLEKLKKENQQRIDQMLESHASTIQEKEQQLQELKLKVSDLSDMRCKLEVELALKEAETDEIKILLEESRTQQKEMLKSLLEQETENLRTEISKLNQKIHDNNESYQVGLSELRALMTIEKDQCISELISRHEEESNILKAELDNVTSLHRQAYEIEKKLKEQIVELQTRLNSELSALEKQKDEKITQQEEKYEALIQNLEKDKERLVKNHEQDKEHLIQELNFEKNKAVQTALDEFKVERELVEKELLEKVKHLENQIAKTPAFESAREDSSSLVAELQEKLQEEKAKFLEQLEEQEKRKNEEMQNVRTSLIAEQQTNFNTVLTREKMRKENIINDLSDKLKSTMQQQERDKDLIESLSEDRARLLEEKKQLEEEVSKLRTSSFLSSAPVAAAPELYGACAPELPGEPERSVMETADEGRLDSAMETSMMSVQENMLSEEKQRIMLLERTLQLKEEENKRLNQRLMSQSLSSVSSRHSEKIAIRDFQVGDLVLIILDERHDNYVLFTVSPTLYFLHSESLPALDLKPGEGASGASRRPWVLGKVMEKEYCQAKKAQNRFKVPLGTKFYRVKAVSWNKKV

Legend:
[1] = target: T1, endogenous RIG-I of RAW 264.7 macrophages (mouse (endogenous in RAW 264.7)) (UniProt Q6Q899); test: co-IP; RAW 264.7 macrophages transfected with 1 ug/ml poly(I:C) for 2 h; endogenous proteins, immunoprecipitated with anti-RIG-I antibody or control IgG
T1 sequence: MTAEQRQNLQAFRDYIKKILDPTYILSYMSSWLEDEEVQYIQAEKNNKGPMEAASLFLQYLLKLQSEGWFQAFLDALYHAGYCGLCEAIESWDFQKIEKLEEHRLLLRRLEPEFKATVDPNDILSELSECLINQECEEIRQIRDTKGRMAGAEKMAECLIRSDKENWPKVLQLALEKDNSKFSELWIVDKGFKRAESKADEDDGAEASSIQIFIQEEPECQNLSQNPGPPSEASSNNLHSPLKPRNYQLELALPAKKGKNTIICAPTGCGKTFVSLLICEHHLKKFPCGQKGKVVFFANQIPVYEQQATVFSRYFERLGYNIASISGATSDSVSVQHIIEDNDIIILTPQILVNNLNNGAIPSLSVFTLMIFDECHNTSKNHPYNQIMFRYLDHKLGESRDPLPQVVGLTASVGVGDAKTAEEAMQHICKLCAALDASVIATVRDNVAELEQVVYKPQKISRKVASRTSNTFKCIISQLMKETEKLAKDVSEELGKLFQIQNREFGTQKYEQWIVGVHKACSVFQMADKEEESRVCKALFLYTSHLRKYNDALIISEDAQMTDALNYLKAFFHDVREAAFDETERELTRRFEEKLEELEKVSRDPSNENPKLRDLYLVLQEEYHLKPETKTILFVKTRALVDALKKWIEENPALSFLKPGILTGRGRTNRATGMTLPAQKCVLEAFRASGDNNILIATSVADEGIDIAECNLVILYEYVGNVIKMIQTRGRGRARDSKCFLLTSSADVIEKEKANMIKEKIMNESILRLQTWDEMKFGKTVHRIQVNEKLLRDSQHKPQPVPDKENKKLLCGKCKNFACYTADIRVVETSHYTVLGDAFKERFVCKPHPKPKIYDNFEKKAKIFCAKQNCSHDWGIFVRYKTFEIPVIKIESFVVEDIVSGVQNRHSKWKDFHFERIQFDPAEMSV

[2] = target: FLAG-tagged FIP200 (not stated (a human plasmid, pMXs-IP-EGFP-hFIP200, is named)) (UniProt Q8TDY2); test: co-IP; HEK293 cells co-transfected with tagged constructs, 48 h; TAP lysis buffer (50 mM Tris-HCl pH 7.5, 10 mM MgCl2, 100 mM NaCl, 0.5% NP-40, 10% glycerol); antibody plus protein A/G agarose or anti-FLAG M2 gel overnight at 4 C
[3] = target: FIP200 (transfected, tags not shown) (not stated (a human plasmid, pMXs-IP-EGFP-hFIP200, is named)) (UniProt Q8TDY2); test: as above
[4] = target: HA-tagged FIP200 (not stated (a human plasmid, pMXs-IP-EGFP-hFIP200, is named)) (UniProt Q8TDY2); test: as above
[5] = target: endogenous FIP200 of A549 cells (human (endogenous in A549)) (UniProt Q8TDY2); test: proximity ligation; A549 cells transfected with 1 ug/ml poly(I:C) for 2 h, fixed; endogenous proteins; Duolink In Situ kit

For “endogenous FIP200 of RAW 264.7 macrophages (from UniProt Q9ESK9 1-1588)”, the binding [1] was “binds”.

B1: Myc-tagged RIG-I (protein, UniProt O95786 1-925)
chain: MTTEQRRSLQAFQDYIRKTLDPTYILSYMAPWFREEEVQYIQAEKNNKGPMEAATLFLKFLLELQEEGWFRGFLDALDHAGYSGLYEAIESWDFKKIEKLEEYRLLLKRLQPEFKTRIIPTDIISDLSECLINQECEEILQICSTKGMMAGAEKLVECLLRSDKENWPKTLKLALEKERNKFSELWIVEKGIKDVETEDLEDKMETSDIQIFYQEDPECQNLSENSCPPSEVSDTNLYSPFKPRNYQLELALPAMKGKNTIICAPTGCGKTFVSLLICEHHLKKFPQGQKGKVVFFANQIPVYEQQKSVFSKYFERHGYRVTGISGATAENVPVEQIVENNDIIILTPQILVNNLKKGTIPSLSIFTLMIFDECHNTSKQHPYNMIMFNYLDQKLGGSSGPLPQVIGLTASVGVGDAKNTDEALDYICKLCASLDASVIATVKHNLEELEQVVYKPQKFFRKVESRISDKFKYIIAQLMRDTESLAKRICKDLENLSQIQNREFGTQKYEQWIVTVQKACMVFQMPDKDEESRICKALFLYTSHLRKYNDALIISEHARMKDALDYLKDFFSNVRAAGFDEIEQDLTQRFEEKLQELESVSRDPSNENPKLEDLCFILQEEYHLNPETITILFVKTRALVDALKNWIEGNPKLSFLKPGILTGRGKTNQNTGMTLPAQKCILDAFKASGDHNILIATSVADEGIDIAQCNLVILYEYVGNVIKMIQTRGRGRARGSKCFLLTSNAGVIEKEQINMYKEKMMNDSILRLQTWDEAVFREKILHIQTHEKFIRDSQEKPKPVPDKENKKLLCRKCKALACYTADVRVIEECHYTVLGDAFKECFVSRPHPKPKQFSSFEKRAKIFCARQNCSHDWGIHVKYKTFEIPVIKIESFVVEDIATGVQTLYSKWKDFHFEKIPFDPAEMSK
In the case of B1, the binding [2] is reported as “binds”.

B2: wild-type RIG-I (transfected, tag not shown) (protein, UniProt O95786 1-925)
chain: MTTEQRRSLQAFQDYIRKTLDPTYILSYMAPWFREEEVQYIQAEKNNKGPMEAATLFLKFLLELQEEGWFRGFLDALDHAGYSGLYEAIESWDFKKIEKLEEYRLLLKRLQPEFKTRIIPTDIISDLSECLINQECEEILQICSTKGMMAGAEKLVECLLRSDKENWPKTLKLALEKERNKFSELWIVEKGIKDVETEDLEDKMETSDIQIFYQEDPECQNLSENSCPPSEVSDTNLYSPFKPRNYQLELALPAMKGKNTIICAPTGCGKTFVSLLICEHHLKKFPQGQKGKVVFFANQIPVYEQQKSVFSKYFERHGYRVTGISGATAENVPVEQIVENNDIIILTPQILVNNLKKGTIPSLSIFTLMIFDECHNTSKQHPYNMIMFNYLDQKLGGSSGPLPQVIGLTASVGVGDAKNTDEALDYICKLCASLDASVIATVKHNLEELEQVVYKPQKFFRKVESRISDKFKYIIAQLMRDTESLAKRICKDLENLSQIQNREFGTQKYEQWIVTVQKACMVFQMPDKDEESRICKALFLYTSHLRKYNDALIISEHARMKDALDYLKDFFSNVRAAGFDEIEQDLTQRFEEKLQELESVSRDPSNENPKLEDLCFILQEEYHLNPETITILFVKTRALVDALKNWIEGNPKLSFLKPGILTGRGKTNQNTGMTLPAQKCILDAFKASGDHNILIATSVADEGIDIAQCNLVILYEYVGNVIKMIQTRGRGRARGSKCFLLTSNAGVIEKEQINMYKEKMMNDSILRLQTWDEAVFREKILHIQTHEKFIRDSQEKPKPVPDKENKKLLCRKCKALACYTADVRVIEECHYTVLGDAFKECFVSRPHPKPKQFSSFEKRAKIFCARQNCSHDWGIHVKYKTFEIPVIKIESFVVEDIATGVQTLYSKWKDFHFEKIPFDPAEMSK
In the case of B2, the binding [3] is reported as “binds” and the binding [4] is reported as “binds”.

B3: endogenous RIG-I of A549 cells (protein, UniProt O95786 1-925)
chain: MTTEQRRSLQAFQDYIRKTLDPTYILSYMAPWFREEEVQYIQAEKNNKGPMEAATLFLKFLLELQEEGWFRGFLDALDHAGYSGLYEAIESWDFKKIEKLEEYRLLLKRLQPEFKTRIIPTDIISDLSECLINQECEEILQICSTKGMMAGAEKLVECLLRSDKENWPKTLKLALEKERNKFSELWIVEKGIKDVETEDLEDKMETSDIQIFYQEDPECQNLSENSCPPSEVSDTNLYSPFKPRNYQLELALPAMKGKNTIICAPTGCGKTFVSLLICEHHLKKFPQGQKGKVVFFANQIPVYEQQKSVFSKYFERHGYRVTGISGATAENVPVEQIVENNDIIILTPQILVNNLKKGTIPSLSIFTLMIFDECHNTSKQHPYNMIMFNYLDQKLGGSSGPLPQVIGLTASVGVGDAKNTDEALDYICKLCASLDASVIATVKHNLEELEQVVYKPQKFFRKVESRISDKFKYIIAQLMRDTESLAKRICKDLENLSQIQNREFGTQKYEQWIVTVQKACMVFQMPDKDEESRICKALFLYTSHLRKYNDALIISEHARMKDALDYLKDFFSNVRAAGFDEIEQDLTQRFEEKLQELESVSRDPSNENPKLEDLCFILQEEYHLNPETITILFVKTRALVDALKNWIEGNPKLSFLKPGILTGRGKTNQNTGMTLPAQKCILDAFKASGDHNILIATSVADEGIDIAQCNLVILYEYVGNVIKMIQTRGRGRARGSKCFLLTSNAGVIEKEQINMYKEKMMNDSILRLQTWDEAVFREKILHIQTHEKFIRDSQEKPKPVPDKENKKLLCRKCKALACYTADVRVIEECHYTVLGDAFKECFVSRPHPKPKQFSSFEKRAKIFCARQNCSHDWGIHVKYKTFEIPVIKIESFVVEDIATGVQTLYSKWKDFHFEKIPFDPAEMSK
B3 was tested, and the binding [5] was “binds”.

B4: HA-tagged RIG-I (protein, UniProt O95786 1-925)
chain: MTTEQRRSLQAFQDYIRKTLDPTYILSYMAPWFREEEVQYIQAEKNNKGPMEAATLFLKFLLELQEEGWFRGFLDALDHAGYSGLYEAIESWDFKKIEKLEEYRLLLKRLQPEFKTRIIPTDIISDLSECLINQECEEILQICSTKGMMAGAEKLVECLLRSDKENWPKTLKLALEKERNKFSELWIVEKGIKDVETEDLEDKMETSDIQIFYQEDPECQNLSENSCPPSEVSDTNLYSPFKPRNYQLELALPAMKGKNTIICAPTGCGKTFVSLLICEHHLKKFPQGQKGKVVFFANQIPVYEQQKSVFSKYFERHGYRVTGISGATAENVPVEQIVENNDIIILTPQILVNNLKKGTIPSLSIFTLMIFDECHNTSKQHPYNMIMFNYLDQKLGGSSGPLPQVIGLTASVGVGDAKNTDEALDYICKLCASLDASVIATVKHNLEELEQVVYKPQKFFRKVESRISDKFKYIIAQLMRDTESLAKRICKDLENLSQIQNREFGTQKYEQWIVTVQKACMVFQMPDKDEESRICKALFLYTSHLRKYNDALIISEHARMKDALDYLKDFFSNVRAAGFDEIEQDLTQRFEEKLQELESVSRDPSNENPKLEDLCFILQEEYHLNPETITILFVKTRALVDALKNWIEGNPKLSFLKPGILTGRGKTNQNTGMTLPAQKCILDAFKASGDHNILIATSVADEGIDIAQCNLVILYEYVGNVIKMIQTRGRGRARGSKCFLLTSNAGVIEKEQINMYKEKMMNDSILRLQTWDEAVFREKILHIQTHEKFIRDSQEKPKPVPDKENKKLLCRKCKALACYTADVRVIEECHYTVLGDAFKECFVSRPHPKPKQFSSFEKRAKIFCARQNCSHDWGIHVKYKTFEIPVIKIESFVVEDIATGVQTLYSKWKDFHFEKIPFDPAEMSK
In the case of B4, the binding [2] is reported as “binds”.
